Experimental findings from paper PMC12095075 are described below.

By UniProt entry, the sequences of proteins in these tests, tags left out. Where a name states a change or a piece, a line headed by the entry shows the natural chain unless it says otherwise. Chains listed by the source or under a name are the forms on record and can include a tag or linker.
BMAL1–Flag (pcDNA3-mBmal1) (Q9WTL8, form named): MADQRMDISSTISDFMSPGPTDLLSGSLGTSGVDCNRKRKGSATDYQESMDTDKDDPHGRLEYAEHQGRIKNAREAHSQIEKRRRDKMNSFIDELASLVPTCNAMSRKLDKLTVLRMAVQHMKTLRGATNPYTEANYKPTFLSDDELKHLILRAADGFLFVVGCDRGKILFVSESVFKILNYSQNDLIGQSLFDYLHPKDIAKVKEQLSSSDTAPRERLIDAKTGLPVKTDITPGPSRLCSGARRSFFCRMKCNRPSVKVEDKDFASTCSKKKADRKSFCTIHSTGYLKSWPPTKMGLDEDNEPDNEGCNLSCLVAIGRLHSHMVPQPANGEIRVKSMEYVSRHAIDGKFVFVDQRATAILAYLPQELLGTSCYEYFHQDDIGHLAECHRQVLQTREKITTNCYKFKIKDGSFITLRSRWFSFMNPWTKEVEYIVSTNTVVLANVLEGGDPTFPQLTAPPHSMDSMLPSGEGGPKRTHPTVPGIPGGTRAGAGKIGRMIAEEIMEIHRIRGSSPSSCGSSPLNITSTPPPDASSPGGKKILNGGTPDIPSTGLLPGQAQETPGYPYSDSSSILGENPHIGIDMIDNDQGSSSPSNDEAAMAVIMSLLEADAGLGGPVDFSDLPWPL

No constants are given. Whether binding was seen depends on the method and setting. Binding seen in cells or lysates may run through a third protein. Some entries that bind do so weakly or less than the wild type.

The experiment concerns the target BMAL1–Flag (pcDNA3-mBmal1) (mouse) (UniProt Q9WTL8). Put plainly: co-IP; HEK293 cells overexpressing BMAL1-Flag (pcDNA3-mBmal1), normoxia or hypoxia (1% O2, 4 h); cytoplasmic and nuclear fractions; IP with anti-Flag (reciprocal IP with anti-HIF2A in Extended Data Fig. 2b); western blot.

B1: CLOCK, endogenous in HEK293 cells (protein, UniProt O15516 1-846)
chain: MLFTVSCSKMSSIVDRDDSSIFDGLVEEDDKDKAKRVSRNKSEKKRRDQFNVLIKELGSMLPGNARKMDKSTVLQKSIDFLRKHKEITAQSDASEIRQDWKPTFLSNEEFTQLMLEALDGFFLAIMTDGSIIYVSESVTSLLEHLPSDLVDQSIFNFIPEGEHSEVYKILSTHLLESDSLTPEYLKSKNQLEFCCHMLRGTIDPKEPSTYEYVKFIGNFKSLNSVSSSAHNGFEGTIQRTHRPSYEDRVCFVATVRLATPQFIKEMCTVEEPNEEFTSRHSLEWKFLFLDHRAPPIIGYLPFEVLGTSGYDYYHVDDLENLAKCHEHLMQYGKGKSCYYRFLTKGQQWIWLQTHYYITYHQWNSRPEFIVCTHTVVSYAEVRAERRRELGIEESLPETAADKSQDSGSDNRINTVSLKEALERFDHSPTPSASSRSSRKSSHTAVSDPSSTPTKIPTDTSTPPRQHLPAHEKMVQRRSSFSSQSINSQSVGSSLTQPVMSQATNLPIPQGMSQFQFSAQLGAMQHLKDQLEQRTRMIEANIHRQQEELRKIQEQLQMVHGQGLQMFLQQSNPGLNFGSVQLSSGNSSNIQQLAPINMQGQVVPTNQIQSGMNTGHIGTTQHMIQQQTLQSTSTQSQQNVLSGHSQQTSLPSQTQSTLTAPLYNTMVISQPAAGSMVQIPSSMPQNSTQSAAVTTFTQDRQIRFSQGQQLVTKLVTAPVACGAVMVPSTMLMGQVVTAYPTFATQQQQSQTLSVTQQQQQQSSQEQQLTSVQQPSQAQLTQPPQQFLQTSRLLHGNPSTQLILSAAFPLQQSTFPQSHHQQHQSQQQQQLSRHRTDSLPDPSKVQPQ
In the case of B1, the binding result is given as “binds”.
